Assay results from PMC6744468.
No constants are given. Whether binding was seen depends on the method and setting. In cells and extracts the contact can be indirect. Some results given as binding are weak or reduced against the parent protein; the word gives no strength.

Protein sequences, listed by entry. Tags and fused reporters are not part of them.
UniProt O95166: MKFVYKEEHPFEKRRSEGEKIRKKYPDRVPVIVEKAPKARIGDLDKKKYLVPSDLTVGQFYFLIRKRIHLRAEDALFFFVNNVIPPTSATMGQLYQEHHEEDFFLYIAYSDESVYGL
UniProt P60520: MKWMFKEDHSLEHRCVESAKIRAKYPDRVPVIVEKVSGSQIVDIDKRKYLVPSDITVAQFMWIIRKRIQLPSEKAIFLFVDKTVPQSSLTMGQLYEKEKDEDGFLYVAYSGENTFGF

How the values were obtained:
[1] = target: GFP-GABARAP (human) (UniProt O95166); assay: co-IP; GFP-trap precipitation of lysates of HEK293 cells transfected with GFP-tagged constructs (alone or with HA-PCM1 variants); immunoblot for endogenous proteins or HA
[2] = target: GFP-GABARAPL2 (human) (UniProt P60520); assay: as above

Binder	binding [1]	binding [2]
SSX2IP, endogenous (protein, UniProt Q9Y2D8 1-614) MGDWMTVTDPGLSSESKTISQYTSETKMSPSSLYSQQVLCSSIPLSKNVHSFFSAFCTEDNIEQSISYLDQELTTFGFPSLYEESKGKETKRELNIVAVLNCMNELLVLQRKNLLAQENVETQNLKLGSDMDHLQSCYSKLKEQLETSRREMIGLQERDRQLQCKNRNLHQLLKNEKDEVQKLQNIIASRATQYNHDMKRKEREYNKLKERLHQLVMNKKDKKIAMDILNYVGRADGKRGSWRTGKTEARNEDEMYKILLNDYEYRQKQILMENAELKKVLQQMKKEMISLLSPQKKKPRERVDDSTGTVISDVEEDAGELSRESMWDLSCETVREQLTNSIRKQWRILKSHVEKLDNQVSKVHLEGFNDEDVISRQDHEQETEKLELEIQQCKEMIKTQQQLLQQQLATAYDDDTTSLLRDCYLLEEKERLKEEWSLFKEQKKNFERERRSFTEAAIRLGLERKAFEEERASWLKQQFLNMTTFDHQNSENVKLFSAFSGSSDWDNLIVHSRQPQKKPHSVSNGSPVCMSKLTKSLPASPSTSDFCQTRSCISEHSSINVLNITAEEIKPNQVGGECTNQKWSVASRPGSQEGCYSGCSLSYTNSHVEKDDLP	binds	binds
OFD1, endogenous (protein, UniProt O75665 1-1012) MMAQSNMFTVADVLSQDELRKKLYQTFKDRGILDTLKTQLRNQLIHELMHPVLSGELQPRSISVEGSSLLIGASNSLVADHLQRCGYEYSLSVFFPESGLAKEKVFTMQDLLQLIKINPTSSLYKSLVSGSDKENQKGFLMHFLKELAEYHQAKESCNMETQTSSTFNRDSLAEKLQLIDDQFADAYPQRIKFESLEIKLNEYKREIEEQLRAEMCQKLKFFKDTEIAKIKMEAKKKYEKELTMFQNDFEKACQAKSEALVLREKSTLERIHKHQEIETKEIYAQRQLLLKDMDLLRGREAELKQRVEAFELNQKLQEEKHKSITEALRRQEQNIKSFEETYDRKLKNELLKYQLELKDDYIIRTNRLIEDERKNKEKAVHLQEELIAINSKKEELNQSVNRVKELELELESVKAQSLAITKQNHMLNEKVKEMSDYSLLKEEKLELLAQNKLLKQQLEESRNENLRLLNRLAQPAPELAVFQKELRKAEKAIVVEHEEFESCRQALHKQLQDEIEHSAQLKAQILGYKASVKSLTTQVADLKLQLKQTQTALENEVYCNPKQSVIDRSVNGLINGNVVPCNGEISGDFLNNPFKQENVLARMVASRITNYPTAWVEGSSPDSDLEFVANTKARVKELQQEAERLEKAFRSYHRRVIKNSAKSPLAAKSPPSLHLLEAFKNITSSSPERHIFGEDRVVSEQPQVGTLEERNDVVEALTGSAASRLRGGTSSRRLSSTPLPKAKRSLESEMYLEGLGRSHIASPSPCPDRMPLPSPTESRHSLSIPPVSSPPEQKVGLYRRQTELQDKSEFSDVDKLAFKDNEEFESSFESAGNMPRQLEMGGLSPAGDMSHVDAAAAAVPLSYQHPSVDQKQIEEQKEEEKIREQQVKERRQREERRQSNLQEVLERERRELEKLYQERKMIEESLKIKIKKELEMENELEMSNQEIKDKSAHSENPLEKYMKIIQQEQDQESADKSSKKMVQEGSLVDTLQSSDKVESLTGFSHEELDDSW	binds	binds
